# Test results as given in PubChem BioAssay AID504467 (National Center for Advancing Translational Sciences (NCATS), 2011).
# The whole screen tested about 330,000 compounds, of which about 7,700 (2.3%) were called active. Inconclusive means that the source gave no clear call. Such entries were picked first, then a sample of the others. Calls follow the shape of the dose curve; as a rule, active = well fitted inhibition curve with a large enough effect; inconclusive = small, poorly fitted or top-dose-only effect, or effect the other way; inactive = flat fitted curve, though single readings scatter. Where the call is inconclusive, the potency comes from a doubtful curve fit.
# Test: qHTS screen for small molecules that inhibit ELG1-dependent DNA repair in human embryonic kidney (HEK293T) cells expressing luciferase-tagged ELG1; also: nearly all actives have a fitted effect of over 55% in size
# Details: HEK293T ELG1-luciferase reporter, luminescence, 16 h, DNA damage induced by 5-fluorouridine; series mostly up to 46.1 µM
# Summary of the method: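 Overnight (16 hr) co-exposure of 2,000 cells/well to 5-fluorouridine and compound at 37 °C preceded detection. Luciferase was quantified via ONE-Glo luminescence; loss of signal denotes inhibition.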
# Potency is read from the fitted curve at half-maximal effect.
row,SMILES,Potency
1,S=C(Nc1cccc(Cl)c1)Nc1ccc2cn[nH]c2c1,"inconclusive: 23.1 µM [activator, single point]"
2,O=C(CN1CCCN(S(=O)(=O)c2ccc(Br)s2)CC1)Nc1ccc(Cl)cc1,"inconclusive: 23.1 µM [inhibitor, single point]"
3,COc1cccc(NC(=O)c2cccc(C(=O)Nc3cccc(OC)c3)n2)c1,"inconclusive: 4.61 µM [inhibitor, single point]"
4,COCc1ccc(C(=O)Nc2ccccc2C(=O)NCc2cccnc2)cc1,inactive
5,O=C(NCc1ccco1)c1ccc2c(c1)N(Cc1ccccc1)C(=O)CS2,"inconclusive: 29.1 µM [inhibitor, single point]"
6,CCc1nnc(NC(=O)CCN2C(=O)C3CCCCC3C2=O)s1 (stereo unspecified),"inconclusive: 10.3 µM [activator, partial curve, poor fit]"
7,Cc1ccc(N/N=C/c2ccc(N3CCOCC3)cc2)cc1C,"inconclusive: 20.6 µM [activator, single point]"
8,O=C(C1CCCCN1S(=O)(=O)c1ccccc1)N1CCN(Cc2ccccc2)CC1 (stereo unspecified),"inconclusive: 18.4 µM [inhibitor, single point]"
9,C#CCOCCOCCOCCNc1nc(N2CCN(C(=O)CCCCCCCCCCNC(=O)[C@H](CCCCN)n3cc(CCO)nn3)CC2)nc(N2CCN(C(=O)CCCCCCCCCCNC(=O)[C@@H]([C@H](C)O)n3cc(C)nn3)CC2)n1,"inconclusive: 2.51 µM [inhibitor, partial curve, poor fit]"
10,COc1ccccc1N(C)S(=O)(=O)c1ccc(C(=O)OCC(=O)Nc2cc(C)on2)cc1,inactive
11,Nc1ccccc1C(=O)Nc1nccs1,"inconclusive: 25.9 µM [activator, single point]"
12,O=S(=O)(Nc1ccc2c(c1)OCO2)c1cccc(Br)c1,inactive
13,O=C(COC(=O)c1ccc(S(=O)(=O)NCc2ccco2)cc1)NCc1ccccc1,inactive
14,COc1cc2c(cc1OC)-c1cc(NC3CCCC3)nc(=O)n1CC2,"inconclusive: 11.6 µM [activator, partial curve]"
15,O=C(NCc1cc2ccccc2[nH]1)c1ccccc1F,"inconclusive: 23.1 µM [activator, single point]"
16,O=C(COC(=O)C1(c2ccccc2F)CCCC1)NCc1cccs1,"inconclusive: 29.1 µM [inhibitor, single point]"
17,O=S(=O)(c1ccccc1)c1nc(NCc2cccnc2)sc1Cl,inactive
18,Cc1ccc(C)c(NC(=O)COC(=O)c2cc3ccccc3oc2=O)c1,"inconclusive: 0.0146 µM [activator, full curve, poor fit]"
19,Cc1ccn2c(=O)nc(SCC(=O)N3CCCCC3)nc2c1,"inconclusive: 25.9 µM [activator, single point]"
20,COc1ccc(-c2csc(NCc3ccco3)n2)cc1,"inconclusive: 4.11 µM [activator, partial curve]"
21,COCC(C)NC(=O)c1cc(-c2cccc(OC)c2)on1 (stereo unspecified),"inconclusive: 16.4 µM [activator, partial curve]"

row,SMILES,Potency
1,CCOC(=O)Cn1nnnc1C(CC)N(Cc1cc2ccc(C)cc2[nH]c1=O)C1CCCC1 (stereo unspecified),"inconclusive: 23.1 µM [inhibitor, partial curve]"
2,NS(=O)(=O)c1ccc(O)c(N2C(=O)c3cccc4c(C(=O)O)ccc(c34)C2=O)c1,"inconclusive: 20.6 µM [activator, partial curve]"
3,COc1ccc(NC(=O)c2ccc3c(c2)OCCO3)cc1OC,"inconclusive: 9.2 µM [activator, partial curve]"
4,Cc1ccc(NC(=O)C(=O)Nc2ccc(C)cn2)nc1,"inconclusive: 3.66 µM [activator, full curve]"
5,CC1=NN(C(=O)c2ccco2)C(O)(c2ccccc2)C1 (stereo unspecified),inactive
6,CCOC(=O)c1c(NC(=S)NC)sc2c1CCCC2,"inconclusive: 2.31 µM [activator, partial curve]"
7,O=C(NCC1CCCO1)[C@@H]1CSC2c3ccccc3C(=O)N21 (stereo partly specified),"inconclusive: 29.1 µM [activator, partial curve, poor fit]"
8,CCC1CCC2(CC1)NC(=O)N(CC(=O)Nc1cccc(S(=O)(=O)N(C)c3ccccc3)c1)C2=O (stereo unspecified),"inconclusive: 18.3 µM [inhibitor, partial curve, poor fit]"
9,Cc1ccc(-c2nnc(SCC(=O)NC(=O)Nc3ccc(C)cc3C)n2N)cc1,"inconclusive: 20.6 µM [activator, partial curve, poor fit]"
10,Cc1cnn(C(=S)NCc2ccc(Cl)cc2)c1,inactive
11,NC(=S)N/N=C/c1c[nH]c2ccc(OCc3ccccc3)cc12,"inconclusive: 23.1 µM [inhibitor, partial curve, poor fit]"
12,Cc1nc(N/N=C/c2cccc(F)c2)cc(N2CCOCC2)n1,"inconclusive: 29.1 µM [inhibitor, single point]"
13,O=C(CSc1nnc2ccccn12)Nc1ccc2c(c1)OCCO2,"inconclusive: 16.4 µM [activator, partial curve]"
14,O=S(=O)(Cc1nc2ccccc2s1)c1ccccc1,"inconclusive: 8.2 µM [activator, partial curve]"
15,Cc1ccc(S(=O)(=O)Nc2cccc(C(=O)NCCN3CCOCC3)c2)cc1F,inactive
16,COc1cc2c(cc1OC)CN(C(=O)CN1CCN(S(=O)(=O)c3ccccc3Br)CC1)CC2,"inconclusive: 20.6 µM [inhibitor, partial curve, poor fit]"
17,O=C(Nc1nnc(C2CC2)o1)c1ccc(S(=O)(=O)N2CCc3ccccc3C2)cc1,"inconclusive: 32.6 µM [inhibitor, single point]"
18,Cc1nc(-c2ccccn2)sc1C(=O)Nc1ccc(Cl)c(Cl)c1,"inconclusive: 16.4 µM [activator, partial curve]"
19,Cc1ccc(Nc2c(-c3ccccn3)nc3cccc(C)n23)cc1,"inconclusive: 4.61 µM [inhibitor, single point]"
20,COCCNC(=O)c1cc(-c2ccc(Cl)c(Cl)c2)on1,"inconclusive: 6.51 µM [activator, partial curve]"

# Rewritten bar-delimited: part of the list above
row | SMILES | Potency
14 | O=S(=O)(Cc1nc2ccccc2s1)c1ccccc1 | inconclusive: 8.2 µM [activator, partial curve]
15 | Cc1ccc(S(=O)(=O)Nc2cccc(C(=O)NCCN3CCOCC3)c2)cc1F | inactive
16 | COc1cc2c(cc1OC)CN(C(=O)CN1CCN(S(=O)(=O)c3ccccc3Br)CC1)CC2 | inconclusive: 20.6 µM [inhibitor, partial curve, poor fit]
